According to PubChem BioAssay AID1671190 (National Center for Advancing Translational Sciences (NCATS), 2021):
Where “and” joins values, the source holds several entries; their conditions need not be identical. Equal entries are not always repeated. The whole screen tested about 580,000 compounds, of which about 6,100 (1.1%) were called active. Inconclusive means that the source gave no clear call. Such entries were picked first, then a sample of the others. Calls follow the shape of the dose curve; as a rule, active = well fitted inhibition curve with a large enough effect; inconclusive = small, poorly fitted or top-dose-only effect, or another doubt; inactive = no such curve, though single readings can be large or run the other way. Where the call is inconclusive, the potency comes from a doubtful curve fit.
% is scaled to controls: 0 for no effect and ±100 for the full control effect; potency is read from the fitted curve at half-maximal effect.

The chains behind the UniProt entries cited, without tags or fusion partners. Where a name states a change or a piece, a line headed by the entry shows the natural chain unless it says otherwise.
UniProt P18054: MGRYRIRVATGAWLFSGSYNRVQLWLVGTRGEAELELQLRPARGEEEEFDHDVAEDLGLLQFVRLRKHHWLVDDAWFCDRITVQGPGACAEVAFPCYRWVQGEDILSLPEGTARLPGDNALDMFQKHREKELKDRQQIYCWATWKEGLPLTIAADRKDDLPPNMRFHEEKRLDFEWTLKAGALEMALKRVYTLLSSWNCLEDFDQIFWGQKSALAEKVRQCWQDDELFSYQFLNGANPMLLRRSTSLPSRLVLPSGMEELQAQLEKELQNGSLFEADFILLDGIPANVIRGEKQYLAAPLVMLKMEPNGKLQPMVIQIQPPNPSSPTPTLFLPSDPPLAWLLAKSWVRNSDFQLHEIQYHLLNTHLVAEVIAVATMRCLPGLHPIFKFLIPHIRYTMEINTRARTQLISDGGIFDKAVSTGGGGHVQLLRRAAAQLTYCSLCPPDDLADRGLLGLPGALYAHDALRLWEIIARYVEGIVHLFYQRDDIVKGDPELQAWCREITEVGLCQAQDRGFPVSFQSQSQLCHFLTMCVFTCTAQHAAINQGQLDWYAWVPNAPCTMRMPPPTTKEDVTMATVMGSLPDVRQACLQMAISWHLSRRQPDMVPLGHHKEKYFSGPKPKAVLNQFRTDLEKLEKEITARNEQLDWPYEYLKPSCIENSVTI

The compounds below were run against Polyunsaturated fatty acid lipoxygenase ALOX12 (Homo sapiens) (UniProt P18054) (assay: Primary qHTS assay for inhibitors of human arachidonate 12S-lipoxygenase (ALOX12): Round 2). Details: purified 12hLO, xylenol orange hydroperoxide absorbance; activity change, negative = inhibition: at 108 µM (top of the series) unless noted.
Outline: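 Hydroperoxide product was detected by ferrous iron/xylenol orange as the 573 to 405 nm absorbance ratio. Arachidonic acid at 40 uM (final) was turned over for 30 min at room temperature by 150 nM human 12hLO, pH 7.0 Hepes buffer, after 15 min compound preincubation.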
`C#Cc1ccc([C@@H]2C=C(C(=O)OCC=C)O[C@H](OCCCCO)C2)cc1` was tested, and the Potency was inconclusive: 56.2 µM [inhibitor, single point]. For `COc1ccc(-c2nc3ccc(C)cn3c2CC(C)(C)C)cc1OC`, the “activity change, negative = inhibition” value was inactive: -29.9%. In the case of `COc1ccc(NC(=O)/C(=C\c2cc(OC)c(OC)cc2[N+](=O)[O-])NC(=O)c2ccccc2)cc1`, the Potency is reported as inconclusive: 100 µM [inhibitor, single point]. `CN(C)c1ccc(/C=C/c2cc[n+](C)cc2)cc1` was tested, and the Potency was active: 1 µM. For `CC1(C)CCC(c2ccc(Cl)cc2)=C(CN2CCN(c3ccc(C(=O)NS(=O)(=O)c4ccc(N[C@H](CCN5CCOCC5)CSc5ccccc5)c(S(=O)(=O)C(F)(F)F)c4)cc3)CC2)C1`, the “activity change, negative = inhibition” value was inactive: 6.03% [at 57.4 µM]. `O=C(Nc1ccc2c(c1)OCO2)C1CN(S(=O)(=O)c2cccnc2)CC12CCCCC2` (configuration not stated) was tested, and the Potency was inconclusive: 25.1 µM [inhibitor, partial curve, poor fit]. For `COc1cc(/C=C(/C#N)C(=O)c2c[nH]c3cccc(C)c23)cc(OC)c1`, the Potency was inconclusive: 5.62 µM [inhibitor, partial curve, poor fit]. With `O=C1Cc2cc(-c3csc(NC4CCCCC4)n3)cc3c2N1CCC3` the Potency was active: 11.2 µM. In the case of `Cc1ccc(Cn2c(CCNc3nc(-c4ccc(Cl)c([N+](=O)[O-])c4)cs3)nc3cc(Cl)c(Cl)cc32)cc1`, the Potency is reported as inconclusive: 39.8 µM [inhibitor, partial curve, poor fit]. For `Cc1c(C(=O)N(Cc2ccc(N(C)C)cc2)Cc2ccco2)oc2cc(Br)ccc12`, the “activity change, negative = inhibition” value was inactive: -23.2%. For `Clc1cccc(CN2CCCCCC2)c1Cl`, the Potency was inconclusive: 0.794 µM [inhibitor, full curve]. For `Cn1cc(C(=O)NCCc2ccccc2)c(=O)c2cc(S(=O)(=O)N3CCCCCC3)ccc21`, the Potency was inconclusive: 126 µM [inhibitor, single point]. With `O=C(COc1cccc2ccccc12)N/N=C/C=C/c1ccccc1` the “activity change, negative = inhibition” value was inactive: -1.05%. With `CCOc1cc(C(=O)Nc2ccccc2O)ccc1OC(F)F` the “activity change, negative = inhibition” value was inactive: -10.8%. For `C=CCNCCCCOc1cccc(Br)c1`, the “activity change, negative = inhibition” value was inactive: -18.8%. With `Cc1cc(C)cc(NS(=O)(=O)c2ccc(NC(=S)NC(=O)c3cccs3)cc2)c1` the Potency was inconclusive: 15.8 µM [inhibitor, full curve]. In the case of `CCOC(=O)/C(C#N)=C/Nc1cc(C(C)(C)C)sc1C(C)=O`, the Potency is reported as inconclusive: 2.24 µM [inhibitor, partial curve, poor fit]. For `COc1ccccc1CNc1ncc(-c2ccccc2)n1C`, the Potency was inconclusive: 3.16 µM [inhibitor, full curve]. In the case of `O=C(CN1C(=O)CC(c2ccco2)Sc2ccccc21)Nc1ccc(Br)cc1` (configuration not stated), the “activity change, negative = inhibition” value is reported as inactive: 0%. `CCC(C)NC(=O)Cn1c(=O)n(C)c(=O)c2sc(N3CCCC3)nc21` (configuration not stated) was tested, and the “activity change, negative = inhibition” value was inactive: -19.2%. With `CCN1CCN(Cc2ccc(OCc3ccccc3)cc2)CC1` the Potency was inconclusive: 31.6 µM [inhibitor, partial curve, poor fit]. `COc1cccc(CN2C(=O)C3(SCC(=O)N3c3ccc(C(C)C)cc3)c3ccccc32)c1` (configuration not stated) was tested, and the Potency was inconclusive: 50.1 µM [inhibitor, partial curve, poor fit]. With `O=C(NC(=S)NCc1ccco1)c1cccc(Cl)c1` the Potency was inconclusive: 44.7 µM [inhibitor, partial curve, poor fit]. For `CCc1ccc(NC(=O)Cn2cc(OC)c(=O)cc2CN2CCN(C(C)=O)CC2)cc1`, the “activity change, negative = inhibition” value was inactive: 3.72%. `Cc1csc2c(N3CCN(C(=O)Nc4ccc(OC(F)(F)F)cc4)CC3)ncnc12` was tested, and the Potency was inconclusive: 35.5 µM [inhibitor, single point]. `CCOc1ccc(NS(=O)(=O)c2ccc3[nH]cc(C(=O)N4CCCCCC4)c(=O)c3c2)cc1` was tested, and the Potency was inconclusive: 56.2 µM [inhibitor, partial curve, poor fit]. `CN(CCCCCCCCC(=O)/C=N/O)Cc1ccccc1` was tested, and the Potency was inconclusive: 70.8 µM [inhibitor, partial curve, poor fit]. In the case of `O=C(c1ccc2c(c1)OCCO2)N(Cc1cccnc1)c1nc2c(F)cc(F)cc2s1`, the Potency is reported as inconclusive: 25.1 µM [inhibitor, partial curve, poor fit]. `COC(=O)C1C(=O)N(S(=O)(=O)c2ccc([N+](=O)[O-])cc2)c2ccccc21` (configuration not stated) was tested, and the Potency was inconclusive: 31.6 µM [inhibitor, partial curve]. `O=[N+]([O-])c1cccc(N2Cc3ccccc3C2)c1` was tested, and the Potency was inconclusive: 39.8 µM [inhibitor, partial curve, poor fit]. In the case of `Cc1ccc(C(=O)NC(=S)Nc2ccc3[nH]c(=O)[nH]c3c2)cc1`, the Potency is reported as inconclusive: 44.7 µM [inhibitor, full curve, poor fit]. For `C=CCNC(=O)c1cc(-c2ccc(OC)cc2)nc2ccc(C(C)C)cc12`, the Potency was inconclusive: 39.8 µM [inhibitor, partial curve, poor fit]. In the case of `Nc1nc(N)c2c(n1)CCCC2`, the “activity change, negative = inhibition” value is reported as inactive: -0.255%. `CCCCCCSc1cc(-c2nc3cc(C)ccn3c2NCCCC)ccc1OC` was tested, and the Potency was inconclusive: 50.1 µM [inhibitor, partial curve, poor fit] and inconclusive: 79.4 µM [inhibitor, partial curve, poor fit]. In the case of `O=C(C=Cc1ccccn1)c1ccccc1`, the Potency is reported as inconclusive: 44.7 µM [inhibitor, partial curve, poor fit]. `COc1ccccc1-n1c(SCc2cc(=O)oc3cc(O)ccc23)nc2ccccc2c1=O` was tested, and the Potency was inconclusive: 3.16 µM [inhibitor, full curve, poor fit]. `O=C(c1ccccc1)N1CCC2(CC1)C(=NC1CCCC1)NC(=O)N2c1cc(F)cc(F)c1` was tested, and the Potency was inconclusive: 8.91 µM [inhibitor, full curve]. With `Cc1nc(NCCC(C)C)sc1C(=O)Nc1ccccc1` the Potency was inconclusive: 28.2 µM [inhibitor, partial curve]. `OC1(c2ccccc2)CN(c2ccccc2)C2=[N+]1CCS2` (configuration not stated) was tested, and the Potency was inconclusive: 39.8 µM [inhibitor, partial curve, poor fit]. In the case of `CNC(=O)c1ccc(Nc2nnc(-c3ccc(C(N)=O)cc3)c3ccccc23)cc1`, the Potency is reported as inconclusive: 112 µM [inhibitor, partial curve, poor fit]. In the case of `CCS(=O)(=O)Nc1ccc(-c2nnc(SCC(=O)OC)o2)cc1`, the “activity change, negative = inhibition” value is reported as inactive: -8.68%. For `CN1CCC(N(C)C(=O)CCc2ccccc2Cl)CC1`, the Potency was inconclusive: 0.316 µM [inhibitor, single point]. With `NC(=O)c1c(NC(=O)c2cccs2)sc2c1CCCCCC2` the Potency was inconclusive: 50.1 µM [inhibitor, partial curve, poor fit]. For `Cc1ccccc1-c1nc(SCC(=O)NCC2CCCO2)c2c(=O)n(C)c(=O)n(C)c2n1` (configuration not stated), the Potency was inconclusive: 44.7 µM [inhibitor, partial curve, poor fit]. For `Clc1cccc(OCCN2CCNCC2)c1`, the Potency was inconclusive: 0.708 µM [inhibitor, full curve, poor fit]. In the case of `COc1ccc(NC(=O)Cc2ccc3c(c2)OCCO3)cn1`, the Potency is reported as inconclusive: 89.1 µM [inhibitor, single point]. `Cc1ccc([C@@H]2CC=C(C(=O)O)[C@H](c3ccc(Br)cc3)N2S(=O)(=O)c2ccccc2C)cc1` was tested, and the Potency was inconclusive: 39.8 µM [inhibitor, partial curve]. `CCN(CC)C(=O)Oc1ccc2c(c1)O/C(=C\c1ccco1)C2=O` was tested, and the Potency was inconclusive: 44.7 µM [inhibitor, partial curve, poor fit]. With `COCCNC(=O)c1ccc2c(=O)n(CCOC)c(SCC(=O)c3c[nH]c4ccccc34)nc2c1` the “activity change, negative = inhibition” value was inactive: 12.3%. `CC1CC(=O)c2cnc(NCc3ccco3)nc2C1` (configuration not stated) was tested, and the Potency was inconclusive: 3.98 µM [inhibitor, full curve, poor fit]. With `C=CCNC(=S)N(Cc1ccccc1)Cc1ccc(F)cc1` the “activity change, negative = inhibition” value was inactive: -13.8%. With `O=C1COc2ccc(OCc3ccc(F)cc3)nc2CN1CCOc1ccccc1` the Potency was inconclusive: 2.51 µM [inhibitor, full curve]. `N#Cc1cccc(NCC(=O)Nc2cccc(S(=O)(=O)N3CCCCC3)c2)c1` was tested, and the Potency was inconclusive: 79.4 µM [inhibitor, single point]. In the case of `CCOc1ccc(N2C(=O)c3n[nH]c(-c4ccco4)c3C2c2cccnc2)cc1` (configuration not stated), the Potency is reported as inconclusive: 5.01 µM [inhibitor, full curve, poor fit]. With `COc1ccccc1-c1oc2ccccc2c1C#CCO` the Potency was inconclusive: 50.1 µM [inhibitor, partial curve, poor fit]. In the case of `Cc1c(CC(=O)O)c(=O)oc2cc(OCc3nn[nH]n3)ccc12`, the Potency is reported as inconclusive: 39.8 µM [inhibitor, partial curve, poor fit] and inconclusive: 12.6 µM [inhibitor, partial curve, poor fit]. With `O=C(CSC(=S)N1CCCCC1)c1ccccc1` the Potency was inconclusive: 44.7 µM [inhibitor, partial curve, poor fit]. With `CCCCOc1cccc(C2C(C(=O)c3ccc(C)o3)=C(O)C(=O)N2c2nnc(C)s2)c1` (configuration not stated) the Potency was inconclusive: 5.01 µM [inhibitor, full curve, poor fit]. For `N#Cc1ccc(C(C(=O)NCc2ccccc2)n2c(=O)c(-c3ccco3)nc3ccccc32)cc1` (configuration not stated), the Potency was active: 17.8 µM. With `Cc1cc(C(=O)OCc2cccnc2)c2ccccc2n1` the Potency was inconclusive: 3.16 µM [inhibitor, full curve, poor fit]. With `O=C(/C=C/c1cccc2c1OCCCO2)c1cccnc1` the Potency was inconclusive: 5.62 µM [inhibitor, full curve, poor fit]. `Fc1ccccc1Cn1c2[n+](c3ccc(C(F)(F)F)cc31)CCCCC2` was tested, and the Potency was inconclusive: 50.1 µM [inhibitor, partial curve, poor fit].
